Measured data: PubChem BioAssay AID686943 (Drosophila RNAi Screening Center, 2013)

Screen: 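Fly genes whose loss alters ERK activation after insulin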 (primary screen)
System: Drosophila S2R+ haemocyte-like cells expressing YFP-tagged ERK (Rolled)
Reagent: long dsRNA against Drosophila genes
Conditions: insulin stimulation versus unstimulated cells; dose and duration not given
Measured: 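Antibody staining for doubly phosphorylated ERK divided by ERK-YFP signal, as plate z-scores, in insulin-treated and untreated cells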
Reading the numbers: replicate 1, z-score of dpERK with insulin: higher = more active ERK per ERK-YFP after insulin
In all, the deposit lists about 23,000 reagents; below is an unselected part of those that have a named target and a result. 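Extra replicates exist only for a retested subset of genes; insulin dose and duration not given; both raised and lowered dpERK matter.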 The numbers tell different reagents against one gene apart. Further read-outs or replicates are left out here. The record does not give: the amount of reagent, the time to read-out.

Men #1
- replicate 1, z-score of dpERK with insulin: 0.36

Men #2
- replicate 1, z-score of dpERK with insulin: 1.23

Men #3
- replicate 1, z-score of dpERK with insulin: -0.65

CG3817
- replicate 1, z-score of dpERK with insulin: -0.04

Cpr72Eb
- replicate 1, z-score of dpERK with insulin: 0.03

Tim23
- replicate 1, z-score of dpERK with insulin: -0.07

gprs
- replicate 1, z-score of dpERK with insulin: 0.26

GstD1
- replicate 1, z-score of dpERK with insulin: 1.16

Rap2l
- replicate 1, z-score of dpERK with insulin: 0.53

CG15725
- replicate 1, z-score of dpERK with insulin: -0.23

Already shown: an excerpt of the list.
Men #2
- replicate 1, z-score of dpERK with insulin: 1.23

Men #3
- replicate 1, z-score of dpERK with insulin: -0.65

CG3817
- replicate 1, z-score of dpERK with insulin: -0.04

The list goes on:
Marcal1
- replicate 1, z-score of dpERK with insulin: -0.36

AANATL5
- replicate 1, z-score of dpERK with insulin: 0.56

NaPi-III #1
- replicate 1, z-score of dpERK with insulin: -0.25

NaPi-III #2
- replicate 1, z-score of dpERK with insulin: -0.91

NaPi-III #3
- replicate 1, z-score of dpERK with insulin: 1.41

Mst36Fa
- replicate 1, z-score of dpERK with insulin: 0.68

CG17683
- replicate 1, z-score of dpERK with insulin: 0.18

Ank2 #1
- replicate 1, z-score of dpERK with insulin: -0.11

Ank2 #2
- replicate 1, z-score of dpERK with insulin: 0.28

Ank2 #3
- replicate 1, z-score of dpERK with insulin: -0.65

Ank2 #4
- replicate 1, z-score of dpERK with insulin: -0.2

Ank2 #5
- replicate 1, z-score of dpERK with insulin: -0.24
